Laboratory results: PubChem BioAssay AID1259308 (NCATS, 2017)

Assay: 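Genes whose loss raises luciferase production in HEK293 cells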 (primary screen)
Cells: human HEK293 embryonic kidney cells stably expressing firefly luciferase (HEK-CMV-Luc2-Hygro)
Reagent: single siRNA against human genes, 0.8 pmol siRNA per well
Timing: 72 h
Measurement: 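Reporter luminescence and viable-cell signal on separate replicate plates, given as percent of non-targeting control and median/MAD z-scores, plus per-cell luciferase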
Direction: total luciferase, z-score and total luciferase, % of control: higher = more reporter protein produced; luciferase per cell, z-score: higher = more reporter output per viable cell
Hit rule: 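An siRNA counts as active if its total luciferase robust z-score exceeds 3; genes with two or more such siRNAs out of three were retested with fresh siRNAs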
Meaning of the calls: active = raised luciferase; inactive = no rise
The deposit covers about 59,000 reagents; below is a part drawn at random. About 1,510 of them (2.6%) were called active. 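Calls use total luciferase alone and ignore viability, so some active siRNAs may act by altering cell number.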 Entries without a mark were called inactive. The numbers tell different reagents against one gene apart. Not all columns of the deposit are shown.

target,siRNA no.,"total luciferase, z-score","total luciferase, % of control","luciferase per cell, z-score"
TMEM215 (GeneID 401498),1,-1.78,46.6,-1.18
TMEM215 (GeneID 401498),2,-1.76,47,0.553
TMEM215 (GeneID 401498),3,-0.737,67.2,0.0526
LINC00944 (GeneID 387895),1,5.01 (active),181,2.66
LINC00944 (GeneID 387895),2,-1.85,45.2,-2.04
LINC00944 (GeneID 387895),3,-1.22,57.7,-1.28
KCNJ1 (GeneID 3758),1,-0.246,77,-0.595
KCNJ1 (GeneID 3758),2,1.18,105,1.18
KCNJ1 (GeneID 3758),3,1.11,104,1.25
KRT83 (GeneID 3889),1,1.13,104,0.707
KRT83 (GeneID 3889),2,0.311,88.1,0.603
KRT83 (GeneID 3889),3,0.509,92,1.37
KRT83 (GeneID 3889),4,-1.28,56.4,-0.858
KRT83 (GeneID 3889),5,0.767,97.1,1.29
KRT83 (GeneID 3889),6,-0.873,64.5,-1.48
CHRM1 (GeneID 1128),1,3.44 (active),150,2.99
CHRM1 (GeneID 1128),2,0.485,91.5,-0.235
CHRM1 (GeneID 1128),3,-0.779,66.4,-0.604
RPL18AP4 (GeneID 127545),1,-0.541,71.1,1.57
RPL18AP4 (GeneID 127545),2,-0.85,65,-0.393
RPL18AP4 (GeneID 127545),3,-0.37,74.5,-0.215
GLRX3 (GeneID 10539),1,0.179,85.5,-0.14
GLRX3 (GeneID 10539),2,0.171,85.3,-0.532
GLRX3 (GeneID 10539),3,0.00329,82,-0.583
DDTL (GeneID 100037417),1,1.77,117,1.9
DDTL (GeneID 100037417),2,-1.1,59.9,-1.13
DDTL (GeneID 100037417),3,-0.0812,80.3,0.138
TBXT (GeneID 6862),1,0.584,93.5,0.843
TBXT (GeneID 6862),2,0.201,85.9,-0.345
TBXT (GeneID 6862),3,-2.5,32.2,-1.54
ZSCAN18 (GeneID 65982),1,2.67,135,3.46
ZSCAN18 (GeneID 65982),2,0.419,90.2,0.496
ZSCAN18 (GeneID 65982),3,0.4,89.8,0.573
SOX11 (GeneID 6664),1,1.18,105,1.27
SOX11 (GeneID 6664),2,-1.25,57,-1.6
SOX11 (GeneID 6664),3,0.253,86.9,-0.271
CACNA1H (GeneID 8912),1,-1.19,58.2,-0.883
CACNA1H (GeneID 8912),2,1.52,112,1.07
CACNA1H (GeneID 8912),3,-0.727,67.4,-0.965
